Experimental findings from patent publication US20230218714A1, “DIAGNOSTICS AND USE OF QUORUM SENSING MOLECULES IN MUSCLE WASTING” (Universiteit Gent, priority 2019, published 2023) are described below.

Where no end group is shown, it is not given here.

For one data set, the system named is C2C12 myoblasts. The experiment in a line: MTT cell viability assay in C2C12 myoblasts. The following applies: MTT concentration-response curve, Blasts. The procedure:
The mouse myoblast C2C12 cell line (ATCC, CRL-1772) was cultured at 37° C. in a 5% CO2 humidified incubator in Dulbecco's modified Eagle medium (DMEM; Thermo Fisher Scientific). For C2C12 cell proliferation, the medium was supplemented with 10% fetal bovine serum (FBS; Thermo Fisher Scientific), 100 units/ml penicillin, and 100 μg/ml streptomycin (1% Pen/Strep; Thermo Fisher Scientific). The proliferation medium was renewed each 2-3 days and confluency was kept below 80%. For differentiation of the C2C12 myoblasts into myotubes, proliferation medium was replaced by differentiation medium when cells reached 80% confluency.
Viability of QSM was assessed using the 3-(4,5-dimethylthiazol-2-yl)-2,5-diphenyltetrazolium bromide (MTT) assay. Briefly, C2C12 myoblasts were seeded in a 96-well plate (3×10^4 cells/well). 24 hours post-seeding, the wells were treated with QSM (1 μM), placebo or positive control (DMSO 2%) and incubated for 24 hours at 37° C. Next, 20 μL of MTT reagent (5 mg/mL; Sigma-Aldrich) was added to each well and the plates were returned to the incubator for 2.5 hours. […] Absorbance was measured at 570 nm using a microplate reader (Thermo Fisher). […]
In a further set of experiments, the dose response effect of QSPs Q22 and Q184 was assessed on MTT reduction of C2C12 myotubes (tables 7.4 and 7.5).
A general note: Tetrazolium dyes change colour on reduction, which living cells bring about.

The subject of another data set is C2C12 myotubes. The experiment in a line: MTT reduction dose response in C2C12 myotubes. The format is cell-based, mouse. The following applies: MTT concentration-response curve, Tubes. The procedure:
In a further set of experiments, using similar methods as described for the screening experiments, a number of QSPs were tested for a dose response relation in C2C12 cells.

With SIFTLVA [Q184, SIFTLVA], the Slope with C2C12 myoblasts is 1.67; in the data set on C2C12 myotubes, 0.68.
